Assay [1] concerns the target T1, recombinant GST-YgfB (Pseudomonas aeruginosa) (UniProt Q9HTW5).
T1 sequence: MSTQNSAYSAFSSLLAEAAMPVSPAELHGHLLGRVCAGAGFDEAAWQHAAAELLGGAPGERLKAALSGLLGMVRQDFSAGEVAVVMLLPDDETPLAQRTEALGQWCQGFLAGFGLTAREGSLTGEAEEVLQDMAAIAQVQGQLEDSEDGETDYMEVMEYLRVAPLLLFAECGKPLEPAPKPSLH
The assay can be described thus: pull-down; 10 µM recombinant GST or GST-YgfB bound to MagneGST beads, incubated with 1 ml cell lysate of ID40∆ygfB::alpA-HiBiT::HA-alpR for 45 min at 4 °C; 50 mM Tris pH 7.5, 300 mM NaCl, 0.5% IGEPAL, 2 mM DTT; eluted with 25 mM glutathione; AlpA-HiBiT detected with LgBiT on the blot; only the target purified. (In general: HiBiT is a short tag that completes a luciferase, so light tracks the accessible tagged protein.)

The target of assay [2] is recombinant His-MBP-AlpA (Pseudomonas aeruginosa). The assay can be described thus: pull-down; 10 µM recombinant His-MBP-AlpA or His-MBP bound to MagneHis Ni particles, incubated with 10 µM recombinant YgfB for 45 min at 4 °C; 50 mM Tris pH 7.5, 25 mM imidazole, 300 mM NaCl, 0.5% IGEPAL, 2 mM DTT; eluted with 350 mM imidazole; blot with anti-YgfB; both purified.

This passage reports binding results from paper PMC9998450.

Results are given in words; binding and its absence hold for the method and conditions named. Binding can be weak; no strength is given. For some assays here: In cells and extracts the contact can be indirect. For some assays here: Where a sequence is shown, tags or fusion partners need not be part of it.

On to “AlpA-HiBiT (Pseudomonas aeruginosa ID40)”, for which the binding entry in assay [1] is given as “binds”.

B1: recombinant YgfB (protein, UniProt Q9HTW5 1-184)
chain: T1 sequence
On to B1, for which the binding entry in assay [2] was “binds”.
